The target of this test is Bcl-2, entire coding region, yeast two-hybrid bait (UniProt P10415). In words: two-hybrid; pBT3-STE-Bcl-2 (bait) and pPR3-N-MAP4 (prey) co-transformed into yeast strain NMY51; growth selection on DDO, TDO or QDO plates at 30 °C for 3 days.

Amino acid sequences for entries named in this document (tags omitted). A change or cut given only in a name is not applied to a line headed by its entry.
UniProt P10415: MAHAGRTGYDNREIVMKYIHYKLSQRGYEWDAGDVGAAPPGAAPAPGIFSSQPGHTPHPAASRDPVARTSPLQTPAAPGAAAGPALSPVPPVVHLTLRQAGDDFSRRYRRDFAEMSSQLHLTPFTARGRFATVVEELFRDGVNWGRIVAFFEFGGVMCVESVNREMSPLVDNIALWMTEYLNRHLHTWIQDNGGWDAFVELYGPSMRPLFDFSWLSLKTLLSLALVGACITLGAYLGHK
UniProt P27546: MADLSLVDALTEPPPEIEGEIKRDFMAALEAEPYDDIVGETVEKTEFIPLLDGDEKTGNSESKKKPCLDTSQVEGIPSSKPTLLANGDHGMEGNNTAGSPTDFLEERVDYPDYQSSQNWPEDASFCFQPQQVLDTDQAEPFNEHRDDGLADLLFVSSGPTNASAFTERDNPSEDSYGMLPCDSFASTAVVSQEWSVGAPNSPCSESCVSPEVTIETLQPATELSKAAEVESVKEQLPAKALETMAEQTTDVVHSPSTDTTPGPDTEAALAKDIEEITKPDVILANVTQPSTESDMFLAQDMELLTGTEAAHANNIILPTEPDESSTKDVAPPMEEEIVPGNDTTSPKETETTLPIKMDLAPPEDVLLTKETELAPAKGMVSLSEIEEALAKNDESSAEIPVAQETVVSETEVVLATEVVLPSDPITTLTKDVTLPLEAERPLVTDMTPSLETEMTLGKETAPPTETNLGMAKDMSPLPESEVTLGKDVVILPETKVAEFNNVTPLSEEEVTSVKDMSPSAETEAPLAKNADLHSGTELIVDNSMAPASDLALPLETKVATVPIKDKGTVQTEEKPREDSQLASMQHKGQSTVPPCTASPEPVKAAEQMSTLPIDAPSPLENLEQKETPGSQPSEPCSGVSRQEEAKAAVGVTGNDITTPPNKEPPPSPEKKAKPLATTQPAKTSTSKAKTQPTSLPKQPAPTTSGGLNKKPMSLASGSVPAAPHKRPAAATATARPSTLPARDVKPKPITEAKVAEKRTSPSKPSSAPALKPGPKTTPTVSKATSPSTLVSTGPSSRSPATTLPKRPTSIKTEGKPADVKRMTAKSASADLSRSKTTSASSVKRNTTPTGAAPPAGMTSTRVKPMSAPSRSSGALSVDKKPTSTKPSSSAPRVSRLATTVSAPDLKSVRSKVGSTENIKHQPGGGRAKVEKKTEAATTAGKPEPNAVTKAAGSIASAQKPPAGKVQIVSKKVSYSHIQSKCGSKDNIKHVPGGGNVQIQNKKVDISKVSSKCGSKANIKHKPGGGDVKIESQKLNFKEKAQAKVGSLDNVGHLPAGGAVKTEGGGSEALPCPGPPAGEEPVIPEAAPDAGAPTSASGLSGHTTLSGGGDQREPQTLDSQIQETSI

The results in this text go back to paper PMC10192331.

These are yes or no findings as the source states them, for the method shown.

Turning to “mutated MAP4 with knocking out L83/G87/D88 (BH3 domain inactivated), yeast two-hybrid prey (from UniProt P27546)”, the binding entry is “no binding”.
